Laboratory results as given in PubChem BioAssay AID493014 (National Center for Advancing Translational Sciences (NCATS), 2011).
Where “and” joins values, the source holds several entries; their conditions need not be identical. Equal entries are not always repeated. The list shows a part of the results. These are further read-outs of the screen, such as a control signal, another cell line or another target. No call is given for them. Most of these compounds were active or inconclusive in the main read-out, so they are no random draw. The note in brackets gives the kind of curve behind each potency; many fits are weak.

Assay: qHTS Assay to Find Inhibitors of Chronic Active B-Cell Receptor Signaling
Settings: ABC-DLBCL IkBa-CBG/CBR reporter, luminescence ratio (green luciferase fused to IkBa over red control in TMD8 lymphoma cells), 4 h
Method in brief: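 Compounds up to 46 uM were incubated four hours with TMD8 cells whose green CBG68 luciferase is fused to IkappaBalpha; red CBR luminescence normalised the signal, and concentration-effect curves were fitted to fusion, red and ratio data.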

[1] = measured here: CBR red luminescence, cell number
[2] = measured here: IkBa-CBG green luminescence

SMILES	AC50 [1]	AC50 [2]
COc1ccc(-c2noc(CSc3ccc(C)cc3)n2)cc1	20.6 µM [rising, partial curve, poor fit]	–
O=S(=O)(c1ccc2ncn(O)c2c1)N1CCOCC1	0.398 µM [rising, full curve, poor fit]	–
CSCCC(NC(=O)c1ccc(Cl)cc1Cl)C(=O)OCC(N)=O (stereo not drawn)	0.501 µM [rising, full curve, poor fit]	–
N#CNC1=NCN(Cc2ccccc2)CN1	0.708 µM [falling, full curve]	–
Cc1ccc(Nc2c(F)c(F)c(F)c(F)c2C(=O)O)c(C)c1	20 µM [rising, partial curve, poor fit]	–
O=C(CSCC(=O)N1CCN(c2ccccc2)CC1)Nc1nc(-c2ccc(Cl)s2)cs1	6.51 µM [falling, full curve, poor fit]	–
COc1ccc(-n2ncc3c(N4CCC(C)CC4)ncnc32)cc1	3.16 µM [rising, partial curve, poor fit]	–
C(=C\c1ccccc1)/C=N/Nc1nncc(-c2ccccc2)n1	9.2 µM [rising, partial curve, poor fit]	–
Cc1ccc(SCc2nc(N)nc(Nc3ccccc3C)n2)cc1C	2.06 µM [falling, full curve, poor fit]	–
COc1ccc(C(=O)Nn2c(SCC(=O)NC3CCCCC3)nc3ccccc3c2=O)cc1	4.61 µM [falling, partial curve]	–
CC(=O)Nc1ccc(/C(C)=N/NC(=O)c2ccncc2)cc1	35.5 µM [falling, single point]	–
Cc1nn(C)cc1CN1CCCC(C(=O)c2ccc(-c3ccccc3)c(F)c2)C1 (stereo not drawn)	3.55 µM [rising, single point]	–
O=C(NCCCn1ccnc1)c1ccc(S(=O)(=O)Nc2ccccc2)cc1	25.1 µM [rising, partial curve, poor fit]	–
O=c1ccnc(SCn2nnc3ccccc3c2=O)[nH]1	16.4 µM [rising, single point]	–
O=C1c2ccccc2C(=O)N1CCc1ccccn1	7.31 µM [falling, single point]	–
CS(=O)(=O)Nc1ccc(S(=O)(=O)Nc2nccs2)cc1	9.2 µM [rising, partial curve]	–
CCOc1ccc(-n2c(=O)c3sccc3n(CC(=O)NCC3CCCO3)c2=O)cc1 (stereo not drawn)	3.98 µM [falling, partial curve, poor fit]	–
COc1ccc(C(C)(C)C)cc1NC(=O)Nc1ccc2c(c1)OCO2	10.3 µM [falling, partial curve, poor fit]	–
Cc1ccc(C2C3=C(NCCN=C3c3ccccc3)C(=O)N2c2ccccc2)cc1 (stereo not drawn)	8.2 µM [falling, single point]	–
CCOc1ccc(CCNC(=O)c2cccc(N3CCCC3=O)c2)cc1OCC	2.59 µM [rising, partial curve, poor fit]	–
O=C(Cn1nc(-c2ccccc2)c2ccccc2c1=O)NCCO	35.5 µM [rising, single point]	–

SMILES	AC50 [1]	AC50 [2]
CCc1cc(-c2n[nH]c(=S)n2CC)cs1	29.1 µM [rising, partial curve, poor fit]	–
COc1ccc(CCN(C)CCC(=O)Nc2cccc(C)c2)cc1OC	0.631 µM [falling, full curve, poor fit]	–
COc1ccc(OC)c(NC(=S)Nc2ccccc2)c1	8.91 µM [rising, partial curve]	–
COc1ccccc1NS(=O)(=O)c1cccs1	29.1 µM [falling, single point]	–
CCN(CC)CCCN(Cc1cc2cc3c(cc2[nH]c1=O)OCO3)C(=S)NCCCN(C)C	35.5 µM [falling, single point]	–
O=C(O)c1ccc(-n2nc(C(F)(F)F)c3c2-c2ccoc2CC3)cc1	2.06 µM [rising, partial curve, poor fit]	–
Cc1ccc(N=C2NC(=O)CS2)cc1C	10 µM [rising, partial curve]	–
CCCCN(C(=S)NC(=O)c1cc(OC)c(OC)c(OC)c1)c1c(N)n(Cc2ccccc2)c(=O)[nH]c1=O	29.1 µM [rising, partial curve, poor fit]	–
Cc1nn(C)c(C(=O)Nc2ccc(S(=O)(=O)NC34CC5CC(CC(C5)C3)C4)cc2)c1Br	7.31 µM [falling, partial curve]	23.1 µM [rising, single point]
COC(=O)Nc1sc2c(c1C(=O)NCc1ccco1)CCC2	1.16 µM [falling, full curve]	–
O=C(OCc1nnc(-c2ccccc2)o1)C1=COCCO1	1.46 µM [rising, full curve, poor fit]	–
Cc1cc(C)c(C)c(S(=O)(=O)N2CCN(C(=O)c3ccc4c(=O)n5c(nc4c3)CCC5)CC2)c1C	4.61 µM [rising, single point]	–
COc1ccc(NC(=O)C23CC4CC(C2)CC(n2cnc(Br)n2)(C4)C3)c(OC)c1	1.16 µM [falling, full curve]	–
CS(=O)(=O)c1ccc(N2CCN(S(=O)(=O)c3cccs3)CC2)c([N+](=O)[O-])c1	29.1 µM [rising, single point]	–
Fc1ccccc1OCCSc1ncnc2nc[nH]c12	35.5 µM [falling, single point]	–
CCOc1ccc2nc(Nc3nc4ccc(NC(C)=O)cc4s3)sc2c1	–	18.4 µM [falling, single point]
O=C(NCCO)/C(=C/c1cccc([N+](=O)[O-])c1)NC(=O)c1ccco1	35.5 µM [rising, single point]	–
CCOc1ccc(CC(=O)Nc2cccc(-c3ccc4nnc(C)n4n3)c2)cc1	0.631 µM [rising, full curve, poor fit]	–
O=C(Nc1ccc(F)cc1)Nc1ccc2ccccc2n1	0.112 µM [rising, full curve, poor fit]	–
CCc1oc2ccccc2c1C(=O)c1cc(Br)c(O)c(Br)c1	10 µM [falling, partial curve] and 29.1 µM [falling, single point]	12.6 µM [rising, partial curve, poor fit]
NC(=O)c1ccc(NC(=O)C#Cc2ccccc2)cc1	15.8 µM [falling, single point]	25.1 µM [falling, single point]

SMILES	AC50 [1]	AC50 [2]
O=C(N/N=C/c1ccc(COc2ccc(Br)cc2)o1)c1ccco1	1.3 µM [rising, full curve]	29.1 µM [falling, partial curve, poor fit]
COc1ccc(/C=C/C(=O)c2ccccc2O)cc1CN1CCOCC1	6.51 µM [falling, single point]	–
O=S(=O)(CC(CN1CCCCC1)N1CCCCC1)c1ccc2ccccc2c1 (stereo not drawn)	2.82 µM [falling, full curve]	–
CS(=O)(=O)N(CC(N)=O)c1ccc2c(c1)OCO2	23.1 µM [rising, partial curve, poor fit]	–
COc1cc(NC(=O)COC(=O)CNC(=O)c2ccc(Cl)cc2)c(C)cc1[N+](=O)[O-]	29.1 µM [rising, single point]	–
O=C(O)c1ccccc1-n1cnnn1	4.47 µM [falling, single point]	–
O=C(Nc1cccc(Br)c1)c1cc(S(=O)(=O)N2CCCCC2)c[nH]1	0.1 µM [rising, full curve, poor fit]	–
CSc1nnc(-c2ccc(F)cc2)o1	7.08 µM [rising, partial curve, poor fit]	–
CC/C(=C(\c1ccccc1)c1ccc(OCCN(C)C)cc1)c1ccccc1	20.6 µM [falling, partial curve]	18.4 µM [rising, partial curve, poor fit]
CN(CC(=O)OCC(=O)NC1CCCC1)S(=O)(=O)c1ccc(Cl)cc1	29.1 µM [rising, single point]	–
COc1ccc(NS(=O)(=O)c2cccc(C(=O)NCC(c3cccs3)N3CCOCC3)c2)cc1 (stereo not drawn)	0.103 µM [rising, full curve, poor fit]	–
O=C1CCC(C(=O)N2CCCC(C(=O)c3ccc4c5c(cccc35)CC4)C2)=NN1 (stereo not drawn)	8.91 µM [falling, partial curve, poor fit]	–
COc1ccc(OC)c(NC(=O)CSc2nnnn2-c2ccc3c(c2)OCO3)c1	18.4 µM [rising, partial curve]	32.6 µM [falling, partial curve, poor fit]
CN(C(=O)CSc1nnc(-c2cccnc2)n1-c1ccccc1F)C1CCS(=O)(=O)C1 (stereo not drawn)	35.5 µM [rising, single point]	–
COCCNC(=S)N/N=C(\C)CCc1ccc2c(c1)OCO2	–	22.4 µM [falling, single point]
Cc1cccc(C(=O)Nc2ccc(CC(=O)O)cc2)c1	23.1 µM [rising, single point]	–
CC(=O)Nc1nc(COc2ccccc2)cs1	20.6 µM [falling, partial curve, poor fit]	–
O=S(=O)(CC12C3C4C5C1C2C(Br)(C43)C51OCCO1)c1ccccc1 (stereo not drawn)	3.26 µM [rising, full curve, poor fit]	–
O=C1c2ccccc2NC2(CCCC2)N1N=C1CCCC1	22.4 µM [falling, partial curve]	–
COc1ccc(C(C)=O)cc1CSc1nnc(Nc2ccccc2)s1	29.1 µM [falling, single point]	–

Full records as entered above:
COc1ccc(OC)c(NC(=O)CSc2nnnn2-c2ccc3c(c2)OCO3)c1 is entered as AC50 [1]: 18.4 µM [rising, partial curve]; AC50 [2]: 32.6 µM [falling, partial curve, poor fit]
Cc1cccc(C(=O)Nc2ccc(CC(=O)O)cc2)c1 is entered as AC50 [1]: 23.1 µM [rising, single point]
CC(=O)Nc1nc(COc2ccccc2)cs1 is entered as AC50 [1]: 20.6 µM [falling, partial curve, poor fit]
O=C1c2ccccc2NC2(CCCC2)N1N=C1CCCC1 is entered as AC50 [1]: 22.4 µM [falling, partial curve]
